Experimental data: PubChem BioAssay AID493246 (Drosophila RNAi Screening Center, 2011)
Test: 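Genome-wide search for dsRNAs that reduce cell number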 (primary screen). Cells: Drosophila Kc and S2R+ cells. Reagents: long dsRNA against Drosophila genes. Detection: 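Raw, unnormalised count of remaining cells in each well; per-plate z-scores of cell number underlie the calls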. Scale: Kc cell number and S2R+ cell number: higher = more cells remaining. Active means: 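Active when the per-plate z-score of cell number is 3 or more in the direction of fewer cells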.
The screen tested about 21,000 reagents; below is an unselected part of those with a known target gene and a result. Of all reagents, 429 (2%) are marked active. 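Values are raw and not normalised between plates; calls rest on per-plate z-scores that were not deposited.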 Entries without a mark were called inactive. A plus sign joins genes that one reagent is predicted to hit. Not given: the amount of reagent, the time to read-out.

What did the screen give for Atg16 (GeneID 326115) [DRSC15052]?
Kc cell number, rep 1: 5.40e5; S2R+ cell number, rep 1: 8.61e5

How did the screen score Atg16 (GeneID 326115) [DRSC15300]?
Kc cell number, rep 1: 1.39e6; Kc cell number, rep 2: 1.46e6; S2R+ cell number, rep 1: 9.83e5; S2R+ cell number, rep 2: 1.07e6

With Atg16 (GeneID 326115) [DRSC15375], what does the deposit list?
Kc cell number, rep 1: 1.42e6; Kc cell number, rep 2: 1.47e6; S2R+ cell number, rep 1: 1.02e6; S2R+ cell number, rep 2: 1.10e6

For CG12920 (GeneID 36052) [DRSC06234], what was measured?
Kc cell number, rep 1: 1.54e6; Kc cell number, rep 2: 1.56e6; S2R+ cell number, rep 1: 1.25e6; S2R+ cell number, rep 2: 1.30e6

Which result is listed for CG5023 (GeneID 42400) [DRSC15697]?
Kc cell number, rep 1: 1.47e6; Kc cell number, rep 2: 1.60e6; S2R+ cell number, rep 1: 9.53e5; S2R+ cell number, rep 2: 1.02e6

Which result is listed for Obp57e (GeneID 326110) [DRSC05891]?
Kc cell number, rep 1: 5.64e5; S2R+ cell number, rep 1: 7.67e5

How did the screen score CG3164 (GeneID 33171) [DRSC00572]?
Kc cell number, rep 1: 1.60e6; Kc cell number, rep 2: 1.59e6; S2R+ cell number, rep 1: 1.09e6; S2R+ cell number, rep 2: 1.30e6

For fd3F (retired record) + Crg-1 [DRSC17283], how do the results read?
Kc cell number, rep 1: 1.42e6; Kc cell number, rep 2: 1.53e6; S2R+ cell number, rep 1: 1.09e6; S2R+ cell number, rep 2: 1.17e6

Which result is listed for BI-1 (GeneID 38936) [DRSC10782]?
Kc cell number, rep 1: 1.27e6; Kc cell number, rep 2: 1.35e6; S2R+ cell number, rep 1: 1.23e6; S2R+ cell number, rep 2: 1.17e6

What did the screen give for AnxB11 (GeneID 32612) [DRSC19331]?
Kc cell number, rep 1: 6.65e5; S2R+ cell number, rep 1: 9.25e5

For CG11437 (GeneID 40470) [DRSC11659], what was measured?
Kc cell number, rep 1: 1.88e6; Kc cell number, rep 2: 2.34e6; S2R+ cell number, rep 1: 1.30e6; S2R+ cell number, rep 2: 1.41e6

For CG11267 (GeneID 39476) [DRSC09833], how do the results read?
Kc cell number, rep 1: 1.47e6; Kc cell number, rep 2: 1.75e6; S2R+ cell number, rep 1: 1.39e6; S2R+ cell number, rep 2: 1.64e6

With Ada3 (GeneID 32787) [DRSC20321], what was measured?
Kc cell number, rep 1: 1.50e6; Kc cell number, rep 2: 1.49e6; S2R+ cell number, rep 1: 1.10e6; S2R+ cell number, rep 2: 1.19e6

How did the screen score Ada3 (GeneID 32787) [DRSC20322]?
Kc cell number, rep 1: 1.30e6; Kc cell number, rep 2: 1.45e6; S2R+ cell number, rep 1: 1.08e6; S2R+ cell number, rep 2: 1.08e6

2 entries already listed, sorted by “Kc cell number, rep 2”, descending:
CG11437 (GeneID 40470) [DRSC11659] — Kc cell number, rep 1 = 1.88e6; Kc cell number, rep 2 = 2.34e6; S2R+ cell number, rep 1 = 1.30e6; S2R+ cell number, rep 2 = 1.41e6
CG11267 (GeneID 39476) [DRSC09833] — Kc cell number, rep 1 = 1.47e6; Kc cell number, rep 2 = 1.75e6; S2R+ cell number, rep 1 = 1.39e6; S2R+ cell number, rep 2 = 1.64e6

The listing continues.
What did the screen give for CG3505 (GeneID 41777) [DRSC15489]?
Kc cell number, rep 1: 1.45e6; Kc cell number, rep 2: 1.51e6; S2R+ cell number, rep 1: 1.23e6; S2R+ cell number, rep 2: 1.31e6

What is on record for Shc (GeneID 44052) [DRSC11284]?
Kc cell number, rep 1: 1.48e6; Kc cell number, rep 2: 1.46e6; S2R+ cell number, rep 1: 1.26e6; S2R+ cell number, rep 2: 1.40e6

What did the screen give for CG7882 (GeneID 35520) [DRSC04899]?
Kc cell number, rep 1: 1.56e6; Kc cell number, rep 2: 1.57e6; S2R+ cell number, rep 1: 1.25e6; S2R+ cell number, rep 2: 1.33e6

For RpS15Ab + RpS15Aa [DRSC06129], how do the results read?
Kc cell number, rep 1: 9.90e5; Kc cell number, rep 2: 1.02e6; S2R+ cell number, rep 1: 7.87e5; S2R+ cell number, rep 2: 9.01e5

For RpS15Ab + RpS15Aa [DRSC19831], what was measured?
Kc cell number, rep 1: 9.84e5 (active); Kc cell number, rep 2: 9.76e5; S2R+ cell number, rep 1: 7.31e5; S2R+ cell number, rep 2: 8.24e5

Which result is listed for Cdc50 (GeneID 32615) [DRSC20224]?
Kc cell number, rep 1: 1.72e6; Kc cell number, rep 2: 1.73e6; S2R+ cell number, rep 1: 1.09e6; S2R+ cell number, rep 2: 1.19e6

With RpS29 + snoRNA:Psi18S-1275 [DRSC16433], what does the deposit list?
Kc cell number, rep 1: 1.14e6; Kc cell number, rep 2: 1.19e6; S2R+ cell number, rep 1: 8.56e5; S2R+ cell number, rep 2: 9.67e5
